Binding data for 1 molecule are collected here from paper PMC9810602.

By UniProt entry, the sequences of proteins in these tests, tags left out.
UniProt P54578: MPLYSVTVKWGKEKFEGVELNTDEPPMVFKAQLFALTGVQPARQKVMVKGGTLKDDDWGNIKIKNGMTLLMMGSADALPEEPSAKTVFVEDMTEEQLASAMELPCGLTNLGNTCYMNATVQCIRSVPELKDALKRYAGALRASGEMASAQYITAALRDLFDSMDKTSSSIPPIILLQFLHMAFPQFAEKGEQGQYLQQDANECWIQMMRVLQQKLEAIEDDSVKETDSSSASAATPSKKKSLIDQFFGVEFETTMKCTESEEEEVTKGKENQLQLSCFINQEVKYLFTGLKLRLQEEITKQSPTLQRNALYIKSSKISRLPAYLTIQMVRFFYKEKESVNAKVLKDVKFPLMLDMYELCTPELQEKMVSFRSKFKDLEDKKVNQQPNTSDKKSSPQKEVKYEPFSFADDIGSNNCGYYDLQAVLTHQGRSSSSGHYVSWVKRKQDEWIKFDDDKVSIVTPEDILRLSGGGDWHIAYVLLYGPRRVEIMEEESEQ

For the assay, the target named is ubiquitin-specific protease 14 (USP14) (human (endogenous in BEAS-2B and HBE)) (UniProt P54578). In words: co-IP; endogenous proteins; BEAS-2B and HBE cells lysed in IP buffer with protease inhibitors; lysates (1 mg protein) with anti-USP14, anti-MFG-E8 or control IgG overnight at 4 °C, protein A/G-agarose beads 2 h; immunoblot.

No constants are given. Whether binding was seen depends on the method and setting. In cells and extracts the contact can be indirect. Some entries that bind do so weakly or less than the wild type.

B1: Milk fat globule epidermal growth factor 8 (MFG-E8) (protein, UniProt Q08431 24-387)
chain: LDICSKNPCHNGGLCEEISQEVRGDVFPSYTCTCLKGYAGNHCETKCVEPLGLENGNIANSQIAASSVRVTFLGLQHWVPELARLNRAGMVNAWTPSSNDDNPWIQVNLLRRMWVTGVVTQGASRLASHEYLKAFKVAYSLNGHEFDFIHDVNKKHKEFVGNWNKNAVHVNLFETPVEAQYVRLYPTSCHTACTLRFELLGCELNGCANPLGLKNNSIPDKQITASSSYKTWGLHLFSWNPSYARLDKQGNFNAWVAGSYGNDQWLQVDLGSSKEVTGIITQGARNFGSVQFVASYKVAYSNDSANWTEYQDPRTGSSKIFPGNWDNHSHKKNLFETPILARYVRILPVAWHNRIALRLELLGC
Consider B1, for which the binding entry is “binds”.
